Data as given in paper PMC6168566.
Results are given in words; binding and its absence hold for the method and conditions named.

Chains of the proteins cited; added tags and fusions are not shown. Lines headed by an entry give the natural chain unless they say otherwise; changes in a name come on top. A line that says so, or that is headed by a name, gives the form on record, which may keep a tag or linker.
AnxA2 Δ14 (AnxA2 lacking the N-terminal 14 amino acids) (P07355, form named): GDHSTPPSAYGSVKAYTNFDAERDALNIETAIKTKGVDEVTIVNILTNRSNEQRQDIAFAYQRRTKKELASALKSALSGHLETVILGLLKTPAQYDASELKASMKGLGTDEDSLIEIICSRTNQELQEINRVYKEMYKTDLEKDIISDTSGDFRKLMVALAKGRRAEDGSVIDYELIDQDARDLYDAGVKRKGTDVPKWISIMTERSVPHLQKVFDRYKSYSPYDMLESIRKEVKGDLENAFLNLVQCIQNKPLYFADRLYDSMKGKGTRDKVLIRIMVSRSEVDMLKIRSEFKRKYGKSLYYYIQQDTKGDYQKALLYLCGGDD
AnxA2 Δ32 (AnxA2 lacking the N-terminal 32 amino acids; core domain only) (P07355, form named): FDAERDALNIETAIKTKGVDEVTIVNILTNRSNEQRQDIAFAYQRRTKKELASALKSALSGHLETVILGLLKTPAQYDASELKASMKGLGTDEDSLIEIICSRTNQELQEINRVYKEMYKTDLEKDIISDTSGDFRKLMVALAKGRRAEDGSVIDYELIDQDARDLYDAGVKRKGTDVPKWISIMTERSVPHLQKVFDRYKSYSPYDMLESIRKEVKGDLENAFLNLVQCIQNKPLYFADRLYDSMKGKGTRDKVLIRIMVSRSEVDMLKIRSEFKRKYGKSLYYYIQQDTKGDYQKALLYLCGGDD

What was measured:
[1] = target: AnxA2 Δ14 (AnxA2 lacking the N-terminal 14 amino acids) (human) (UniProt P07355); assay: SDS-PAGE under non-reducing conditions; purified AnxA2 derivatives kept under oxidizing (non-reducing) conditions (WT: oxidation state after 1 and 5 weeks); disulfide-linked dimer against monomer; both purified
[2] = target: AnxA2 Δ32 (AnxA2 lacking the N-terminal 32 amino acids; core domain only) (human) (UniProt P07355); assay: as above

Row | binding [1] | binding [2] | Substance
1 | no binding |  | AnxA2 Δ14 (AnxA2 lacking the N-terminal 14 amino acids) (from UniProt P07355 15-339) (domain or fragment)
2 |  | no binding | AnxA2 Δ32 (AnxA2 lacking the N-terminal 32 amino acids; core domain only) (from UniProt P07355 33-339) (domain or fragment)
